Measurements: patent US7655650B2, “Oxadiazine derivatives” (Syngenta Corporation, priority 1992, dated 2010)
Some of these results come from one statement about several compounds together.

Assays:
Type in all cases: in vivo
Bemisia tabaci = assay: Example B3: Activity against Bemisia tabaci; conditions: 400 ppm spray on dwarf bean plants with nymphs, 10 days after oviposition; evaluated after a further 14 days
Nilaparvata lugens = assay: Example B13: Activity against Nilaparvata lugens (systemic); conditions: systemic: pots with rice plants in 10 ppm emulsion solution; larvae in the 2nd and 3rd stages; evaluated after 6 days
Myzus persicae = assay: Example B9: Activity against Myzus persicae (systemic); conditions: systemic: roots of infected pea seedlings in 400 ppm spray mixture; 20°; evaluated after 3 and 6 days

CN1COCN(Cc2ccc(Cl)nc2)/C1=N/[N+](=O)[O-] [Compound No. 1.2, 5-(2-Chloropyrid-5-ylmethyl)-3-methyl-4-nitroiminoperhydro-1,3,5-oxadiazine]
over 80%: activity (percentage hatching rate of the eggs by comparison with untreated control) (Bemisia tabaci) | percentage reduction in population (% activity) (Nilaparvata lugens) | percentage reduction in population (do activity) (Myzus persicae)
